Data as given in publication PMC3170336.

Target: CD99 short form (retrovirally expressed in CD99 negative Ramos cells)
Experiment: co-IP; lysates of Ramos cells expressing CD99 short form or CD99 long form precipitated with anti-CD99 mAb; Western blot with anti-MHC class I, anti-MHC class II, anti-CD81, anti-NTAL mAbs; CD99 negative Ramos cells as control

B1: tetraspanin CD81 (endogenous, Ramos cells) (protein, UniProt P60033 1-236)
chain: MGVEGCTKCIKYLLFVFNFVFWLAGGVILGVALWLRHDPQTTNLLYLELGDKPAPNTFYVGIYILIAVGAVMMFVGFLGCYGAIQESQCLLGTFFTCLVILFACEVAAGIWGFVNKDQIAKDVKQFYDQALQQAVVDDDANNAKAVVKTFHETLDCCGSSTLTALTTSVLKNNLCPSGSNIISNLFKEDCHQKIDDLFSGKLYLIGIAAIVVAVIMIFEMILSMVLCCGIRNSSVY
**Q.** For B1, which binding is on record?
**A.** binds

B2: NTAL (endogenous, Ramos cells) (protein, UniProt Q9GZY6 1-243)
chain: MSSGTELLWPGAALLVLLGVAASLCVRCSRPGAKRSEKIYQQRSLREDQQSFTGSRTYSLVGQAWPGPLADMAPTRKDKLLQFYPSLEDPASSRYQNFSKGSRHGSEEAYIDPIAMEYYNWGRFSKPPEDDDANSYENVLICKQKTTETGAQQEGIGGLCRGDLSLSLALKTGPTSGLCPSASPEEDEESEDYQNSASIHQWRESRKVMGQLQREASPGPVGSPDEEDGEPDYVNGEVAATEA
**Q.** B2 was tested. Which binding did it give?
**A.** no binding

No constants are given. Whether binding was seen depends on the method and setting. Binding seen in cells or lysates may run through a third protein. A result given as binding can be weak or reduced; the word gives no strength.
